Source: PubChem BioAssay AID1259308 (NCATS, 2017)

Purpose: 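Genes whose loss raises luciferase production in HEK293 cells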 (primary screen)
System: human HEK293 embryonic kidney cells stably expressing firefly luciferase (HEK-CMV-Luc2-Hygro)
Knock-down reagent: single siRNA against human genes, 0.8 pmol siRNA per well
Time to read-out: 72 h
Measurement: 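Luciferase light (ONE-Glo) measured on one replicate plate set and viability (CellTiter-Glo) on the other, scaled to a negative control siRNA, with robust z-scores and luciferase per cell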
Reading the numbers: total luciferase, z-score and total luciferase, % of control: higher = more reporter protein produced; luciferase per cell, z-score: higher = more reporter output per viable cell; viable cells, % of control: higher = more viable cells
Call rule: 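An siRNA counts as active if its total luciferase robust z-score exceeds 3; genes with two or more such siRNAs out of three were retested with fresh siRNAs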
Meaning of the calls: active = raised luciferase; inactive = no rise
The whole screen tested about 59,000 reagents; below is a part drawn at random. About 1,510 of them (2.6%) were called active. 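Calls use total luciferase alone and ignore viability, so some active siRNAs may act by altering cell number.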 Entries without a mark were called inactive. Reagents against one gene are numbered here.

no.	target gene	siRNA no.	total luciferase, z-score	total luciferase, % of control	luciferase per cell, z-score	viable cells, % of control
1	PLET1 (placenta expressed transcript 1)	1	0.356	89	0.843	79.6
2	PLET1 (placenta expressed transcript 1)	2	-1.93	43.6	-2.02	82.9
3	PLET1 (placenta expressed transcript 1)	3	-1.41	53.8	-1.38	86.5
4	QTRT1 (queuine tRNA-ribosyltransferase catalytic subunit 1)	1	-1.38	54.4	-1.71	95.3
5	QTRT1 (queuine tRNA-ribosyltransferase catalytic subunit 1)	2	0.00814	82	-0.319	99.7
6	QTRT1 (queuine tRNA-ribosyltransferase catalytic subunit 1)	3	-0.0873	80.2	-0.991	116
7	ZNF615 (zinc finger protein 615)	1	-0.241	77.1	0.0357	85.3
8	ZNF615 (zinc finger protein 615)	2	0.927	100	0.396	101
9	ZNF615 (zinc finger protein 615)	3	-0.671	68.5	-0.988	99.3
10	CSNK1A1 (casein kinase 1 alpha 1)	1	-1.55	51.1	0.217	53.9
11	CSNK1A1 (casein kinase 1 alpha 1)	2	1.29	108	0.811	97.1
12	CSNK1A1 (casein kinase 1 alpha 1)	3	3.01 (active)	142	3.17	68.8
13	TOMM40L (translocase of outer mitochondrial membrane 40 like)	1	0.855	98.9	1.26	79.2
14	TOMM40L (translocase of outer mitochondrial membrane 40 like)	2	0.494	91.7	0.0301	102
15	TOMM40L (translocase of outer mitochondrial membrane 40 like)	3	0.309	88	0.223	92.8
16	EPB42 (erythrocyte membrane protein band 4.2)	1	0.435	90.5	-0.0755	103
17	EPB42 (erythrocyte membrane protein band 4.2)	2	-0.25	76.9	-1.09	115
18	EPB42 (erythrocyte membrane protein band 4.2)	3	-0.313	75.7	-0.753	103
19	POU2F1 (POU class 2 homeobox 1)	1	1.16	105	0.721	97.1
20	POU2F1 (POU class 2 homeobox 1)	2	-1.06	60.9	-1.57	103
21	POU2F1 (POU class 2 homeobox 1)	3	2.52	132	1.8	92
22	NAF1 (nuclear assembly factor 1 ribonucleoprotein)	1	-0.846	65.1	-0.229	77.2
23	NAF1 (nuclear assembly factor 1 ribonucleoprotein)	2	-0.471	72.5	-0.283	87.3
24	NAF1 (nuclear assembly factor 1 ribonucleoprotein)	3	-0.755	66.9	-0.645	88.6
25	RNF10 (ring finger protein 10)	1	0.00333	82	-0.961	118
26	RNF10 (ring finger protein 10)	2	0.216	86.2	0.128	93.1
27	RNF10 (ring finger protein 10)	3	0.671	95.2	1.42	73.1
28	GSTA12P (glutathione S-transferase alpha 12, pseudogene)	1	-1.02	61.5	-1.38	98.8
29	GSTA12P (glutathione S-transferase alpha 12, pseudogene)	2	-0.179	78.3	-0.29	94.5
30	GSTA12P (glutathione S-transferase alpha 12, pseudogene)	3	-0.135	79.2	-0.831	110
31	IMP4 (IMP U3 small nucleolar ribonucleoprotein 4)	1	-0.958	62.8	-0.221	74.4
32	IMP4 (IMP U3 small nucleolar ribonucleoprotein 4)	2	-2.58	30.6	-3.12	77.7
33	IMP4 (IMP U3 small nucleolar ribonucleoprotein 4)	3	-1.83	45.5	-1.28	71.2
34	TYMSOS (TYMS opposite strand RNA)	1	0.54	92.6	0.621	87.9
35	TYMSOS (TYMS opposite strand RNA)	2	-0.797	66	-1.03	96.7
36	TYMSOS (TYMS opposite strand RNA)	3	0.441	90.7	0.315	93.2
37	STING1 (stimulator of interferon response cGAMP interactor 1)	1	-2.58	30.5	-2.91	73.4
38	STING1 (stimulator of interferon response cGAMP interactor 1)	2	0.847	98.7	0.357	100
39	STING1 (stimulator of interferon response cGAMP interactor 1)	3	-0.329	75.3	-0.613	98.9
40	LCOR (ligand dependent nuclear receptor corepressor)	1	-1.03	61.5	-0.959	88.4
41	LCOR (ligand dependent nuclear receptor corepressor)	2	1.39	109	1.28	87.4
42	LCOR (ligand dependent nuclear receptor corepressor)	3	-0.929	63.4	-0.478	80.4
43	LCOR (ligand dependent nuclear receptor corepressor)	4	0.168	85.2	0.0594	93.7
44	LCOR (ligand dependent nuclear receptor corepressor)	5	-0.0222	81.4	-0.196	95.8
45	LCOR (ligand dependent nuclear receptor corepressor)	6	-0.796	66.1	-1.24	102
46	FAM215B (family with sequence similarity 215 member B)	1	0.7	95.8	1.12	79.8
47	FAM215B (family with sequence similarity 215 member B)	2	-1.87	44.6	-0.454	56.2
48	FAM215B (family with sequence similarity 215 member B)	3	-0.0529	80.8	-0.307	97.9
49	DOCK8 (dedicator of cytokinesis 8)	1	-0.0866	80.2	-0.422	100
50	DOCK8 (dedicator of cytokinesis 8)	2	-0.285	76.2	-0.462	96.2
51	DOCK8 (dedicator of cytokinesis 8)	3	0.216	86.2	-0.252	103
52	SLC38A6	1	-1.32	55.6	-1.6	94.6
53	SLC38A6	2	0.323	88.3	0.915	77.6
54	SLC38A6	3	2.52	132	1.52	98.9
55	CD46 (CD46 molecule)	1	-0.376	74.4	-0.0944	85.2
56	CD46 (CD46 molecule)	2	-0.0431	81	-0.581	106
57	CD46 (CD46 molecule)	3	0.435	90.5	0.59	86.6
58	PLCXD1	1	-1.62	49.7	-1.44	81.2
59	PLCXD1	2	1.92	120	1.29	95.6
60	PLCXD1	3	-2.93	23.7	-5.14	102
61	ZNF469 (zinc finger protein 469)	1	-1.51	51.8	-0.494	66
62	ZNF469 (zinc finger protein 469)	2	-0.213	77.7	0.084	84.9
63	ZNF469 (zinc finger protein 469)	3	-0.871	64.6	0.173	68.9
64	EFHB (EF-hand domain family member B)	1	0.147	84.8	0.236	89.1
65	EFHB (EF-hand domain family member B)	2	-0.488	72.2	-0.509	92.2
66	EFHB (EF-hand domain family member B)	3	-2.1	40.1	-1.79	71.9
67	TMEM65 (transmembrane protein 65)	1	-0.657	68.8	1.18	56.4
68	TMEM65 (transmembrane protein 65)	2	0.5	91.8	1.09	77.1
69	TMEM65 (transmembrane protein 65)	3	1.68	115	0.836	103
70	GCM2 (GCM transcription factor 2)	1	0.841	98.6	0.901	86.9
71	GCM2 (GCM transcription factor 2)	2	0.547	92.8	0.733	85.5
72	GCM2 (GCM transcription factor 2)	3	-0.895	64.1	-0.96	92.2
73	WFDC3 (WAP four-disulfide core domain 3)	1	-0.407	73.8	-0.728	99.9
74	WFDC3 (WAP four-disulfide core domain 3)	2	-0.25	76.9	0.131	83
75	WFDC3 (WAP four-disulfide core domain 3)	3	0.0416	82.7	-0.147	96.1

7 neighbouring entries from above, for reference:
no.	target gene	siRNA no.	total luciferase, z-score	total luciferase, % of control	luciferase per cell, z-score	viable cells, % of control
52	SLC38A6	1	-1.32	55.6	-1.6	94.6
53	SLC38A6	2	0.323	88.3	0.915	77.6
54	SLC38A6	3	2.52	132	1.52	98.9
55	CD46 (CD46 molecule)	1	-0.376	74.4	-0.0944	85.2
56	CD46 (CD46 molecule)	2	-0.0431	81	-0.581	106
57	CD46 (CD46 molecule)	3	0.435	90.5	0.59	86.6
58	PLCXD1	1	-1.62	49.7	-1.44	81.2
